Test results as given in publication PMC5444859.
No constants are given. Whether binding was seen depends on the method and setting.

Target: CASV L-Cterm deltaC (L-Cterm lacking the C-terminal 14 residues) (California Academy of Sciences virus (CASV)) (UniProt J7HBG8)
Experiment: SAXS; both purified

CASV L-Cterm deltaC (L-Cterm lacking the C-terminal 14 residues) (from UniProt J7HBG8 1721-2032) (domain or fragment)
binding: no binding
